Results from paper PMC10624613.
These are yes or no findings as the source states them, for the method shown. Binding seen in cells or lysates may run through a third protein. Some entries that bind do so weakly or less than the wild type. For part of these data: Where a sequence is shown, tags or fusion partners need not be part of it.

By UniProt entry, the sequences of proteins in these tests, tags left out.
UniProt P62330: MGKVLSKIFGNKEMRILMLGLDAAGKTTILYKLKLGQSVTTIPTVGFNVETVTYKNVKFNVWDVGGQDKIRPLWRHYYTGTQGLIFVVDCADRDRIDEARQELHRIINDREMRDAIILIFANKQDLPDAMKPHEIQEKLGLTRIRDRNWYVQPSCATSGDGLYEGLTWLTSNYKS
UniProt P27986: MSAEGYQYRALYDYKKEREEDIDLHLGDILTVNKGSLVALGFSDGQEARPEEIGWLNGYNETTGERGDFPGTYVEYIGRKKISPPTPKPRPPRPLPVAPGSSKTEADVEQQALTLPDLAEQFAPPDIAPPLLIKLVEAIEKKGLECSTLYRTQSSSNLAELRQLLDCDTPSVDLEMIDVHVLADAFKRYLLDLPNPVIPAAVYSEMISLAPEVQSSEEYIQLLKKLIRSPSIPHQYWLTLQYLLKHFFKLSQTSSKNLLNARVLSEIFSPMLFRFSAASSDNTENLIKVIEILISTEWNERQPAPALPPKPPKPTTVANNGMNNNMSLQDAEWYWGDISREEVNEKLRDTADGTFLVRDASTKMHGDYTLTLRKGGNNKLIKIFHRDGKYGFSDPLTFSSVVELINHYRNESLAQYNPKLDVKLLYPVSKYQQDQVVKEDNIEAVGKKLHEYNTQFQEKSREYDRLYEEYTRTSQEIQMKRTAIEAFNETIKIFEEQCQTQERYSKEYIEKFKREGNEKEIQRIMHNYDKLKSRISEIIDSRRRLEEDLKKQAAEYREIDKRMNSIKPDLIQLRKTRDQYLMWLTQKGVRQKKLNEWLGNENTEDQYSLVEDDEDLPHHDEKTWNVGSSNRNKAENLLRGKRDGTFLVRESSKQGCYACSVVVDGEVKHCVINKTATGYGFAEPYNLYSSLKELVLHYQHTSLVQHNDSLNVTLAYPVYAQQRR

Key:
[1] = biological target: T1, F-box ubiquitin E3 ligase FBXO21 (human (endogenous in MOLM-13)) (UniProt O94952); experiment: co-IP; endogenous immunoprecipitation of FBXO21 in MOLM-13 cells, western blot
T1 sequence: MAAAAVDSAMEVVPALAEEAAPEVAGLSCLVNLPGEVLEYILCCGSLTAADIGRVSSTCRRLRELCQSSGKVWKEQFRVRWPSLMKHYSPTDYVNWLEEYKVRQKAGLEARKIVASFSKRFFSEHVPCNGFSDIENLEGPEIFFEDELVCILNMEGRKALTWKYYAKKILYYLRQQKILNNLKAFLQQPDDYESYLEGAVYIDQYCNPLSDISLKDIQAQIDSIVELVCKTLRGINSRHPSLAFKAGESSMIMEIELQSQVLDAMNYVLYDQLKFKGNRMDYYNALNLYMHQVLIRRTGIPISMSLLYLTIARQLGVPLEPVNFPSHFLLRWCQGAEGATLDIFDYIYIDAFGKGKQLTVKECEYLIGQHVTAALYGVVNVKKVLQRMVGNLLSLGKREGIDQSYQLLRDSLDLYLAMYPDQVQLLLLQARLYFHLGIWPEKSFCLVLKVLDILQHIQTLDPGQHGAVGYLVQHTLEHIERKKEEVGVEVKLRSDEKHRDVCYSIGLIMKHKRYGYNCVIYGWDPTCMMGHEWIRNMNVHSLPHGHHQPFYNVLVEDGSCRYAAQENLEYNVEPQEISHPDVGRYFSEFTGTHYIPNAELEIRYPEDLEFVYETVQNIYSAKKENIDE

HA-tagged FBXO21 = biological target: T2, HA-tagged FBXO21 (UniProt O94952); experiment: co-IP; HEK293T cells transiently transfected with GFP-tagged p85α and/or HA-tagged FBXO21/ΔFBXO21; immunoprecipitation of GFP or HA, western blot
T2 sequence: T1 sequence

Row | binding [1] | binding (HA-tagged FBXO21) | Substance
1 | no binding |  | ARF6 (from UniProt P62330 1-175)
2 |  | binds | GFP-tagged p85α (from UniProt P27986 1-724)
3 | binds |  | p85α, regulatory subunit of phosphoinositide 3-kinase (PI3K) (from UniProt P27986 1-724)
